Read-outs that look alike come from different tables or passages of the source.
Legend:
[1] = Label-free microscale thermophoresis (MST) melanin binding assay
Description: Synthetic melanin was purchased from Sigma Aldrich (#M8631-100 mg). Melanin nanoparticles were prepared as described earlier by Fan et al., and low-binding pipette tips (Maxymum RecoveryTM pipet tips, Corning Incorporated, Salt Lake City, UT, USA) and tubes (No stick microtubes, Alpha Laboratories, Hampshire, UK) were used with both melanin and melanin nanoparticles. Briefly, melanin was dissolved into 1 N NaOH with a concentration of 2 mg/mL and stirred by vortexing. The solution was neutralized by adding an equal volume of 1 N HCl. […] After the final centrifugation, the resulting nanoparticles were suspended into a small volume of sterile water and freeze-dried for 48–72 h (ModulyoD-230, Thermo Savant, Holbrook, NY, USA), and stored at −20 °C until the binding assays.
Melanin binding of each of the 13 model compounds was determined (for the concentrations in the assay, see Table 1). […]
After >2 h incubation, the melanin–ligand complexes were mixed gently with a pipette to ensure melanin solution homogeneity and then transferred into capillaries (Monolith NT.115 Premium capillaries, #MOK025, NanoTemper Technologies GmbH, München, Germany). The samples were analyzed with a Monolith NT.115 pico device using MO.Control Software (both from NanoTemper Technologies GmbH, München, Germany) using nano-blue excitation, LED light adjusted to 60% excitation power, and infrared laser (MST power) set to high. […] Unbound is either the normalized fluorescence signal (Fnorm; MST mode) or raw fluorescence counts (initial fluorescence mode) of the target alone. Bound is either the normalized fluorescence signal or raw fluorescence counts (initial fluorescence mode) of the melanin–ligand complex. […]
The normalized fluorescence is the ratio of relative fluorescence of the selected region after heating (hot region) and relative initial fluorescence before the heating (cold region, i.e., relative fluorescence values before the infrared laser was switched on). […]
Kd determination strategies. The Kd values were tested in both initial fluorescence and the above […]

[2] = parameters: method as in PMID 26741026, PMID 29859954; conditions: from previous studies; ref [11],[16]; read-out: Kd ± SE, traditional method (Sips isotherm); cited from earlier work

Kd ([1]; 0.5 mg/mL (12.5 µM) melanin nanoparticles, PBS pH 7.4, room temperature, 68% confidence, initial fluorescence mode for compounds marked *, otherwise MST mode, read-out: Kd ± Kd Confidence (MST)): 80 ± 92 µM | Kd ([1]; Table S2, normalized fluorescence, 60% excitation power, read-out: Kd, MST mode (Fnorm)): 230 µM | Kd ([1]; Table S2, raw fluorescence counts before heating, 60% excitation power, read-out: Kd, initial fluorescence mode): 80 µM
Structure (SMILES): CC(C)NCC(O)COc1cccc2ccccc12 (stereo not shown) [Propranolol]
Kd [2]: 163 ± 100 µM
